Assay results from the supplement of paper PMC8728848.
The other results are listed elsewhere or left out.

How the values were obtained:
Test in all cases: glycan array binding signal (z-score within array); higher = stronger binding
Settings in all cases: glycan notation: IUPAC condensed, linker removed
Gal3S(b1-4)Glc = target: Gal3S(b1-4)Glc
Summary of the method: (§1)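 From the Consortium for Functional Glycomics database, 3228 arrays were curated, keeping only those whose protein sequence was available. Binding is given as a within-array Z-score averaged across arrays sharing a protein sequence and across linkers. Negative Z-scores can be read as non-binding.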

Gal3S(b1-4)Glc6S = target: Gal3S(b1-4)Glc6S
Summary of the method: as §1

Gal3S(b1-4)GlcNAc = target: Gal3S(b1-4)GlcNAc
Summary of the method: as §1

[1] = target: Gal3S(b1-4)[Fuc(a1-3)]Glc6S
Summary of the method: as §1

[2] = target: Gal3S(b1-4)[Fuc(a1-3)]GlcNAc
Summary of the method: as §1

[3] = target: Gal3S(b1-4)[Fuc(a1-3)]GlcNAc6S
Summary of the method: as §1

Gal3S4S(b1-4)GlcNAc = target: Gal3S4S(b1-4)GlcNAc
Summary of the method: as §1

Gal3S6S(b1-4)GlcNAc = target: Gal3S6S(b1-4)GlcNAc
Summary of the method: as §1

Gal3S6S(b1-4)GlcNAc6S = target: Gal3S6S(b1-4)GlcNAc6S
Summary of the method: as §1

Gal4S(b1-4)GlcNAc = target: Gal4S(b1-4)GlcNAc
Summary of the method: as §1

Gal4S6S(b1-4)GlcNAc = target: Gal4S6S(b1-4)GlcNAc
Summary of the method: as §1

Gal6P(b1-4)GlcNAc = target: Gal6P(b1-4)GlcNAc
Summary of the method: as §1

Gal6S(b1-3)GlcNAc = target: Gal6S(b1-3)GlcNAc
Summary of the method: as §1

Gal6S(b1-3)GlcNAc6S = target: Gal6S(b1-3)GlcNAc6S
Summary of the method: as §1

Gal6S(b1-4)Glc = target: Gal6S(b1-4)Glc
Summary of the method: as §1

Gal6S(b1-4)Glc6S = target: Gal6S(b1-4)Glc6S
Summary of the method: as §1

Gal6S(b1-4)GlcNAc = target: Gal6S(b1-4)GlcNAc
Summary of the method: as §1

Gal6S(b1-4)GlcNAc6S = target: Gal6S(b1-4)GlcNAc6S
Summary of the method: as §1

GalNAc(a1-3)Gal = target: GalNAc(a1-3)Gal
Summary of the method: as §1

GalNAc(a1-3)GalNAc = target: GalNAc(a1-3)GalNAc
Summary of the method: as §1

[4] = target: GalNAc(a1-3)GalNAc(b1-3)Gal(a1-4)Gal(b1-4)Glc
Summary of the method: as §1

[5] = target: GalNAc(a1-3)GalNAc(b1-3)Gal(a1-4)Gal(b1-4)GlcNAc
Summary of the method: as §1

GalNAc(b1-3)Gal = target: GalNAc(b1-3)Gal
Summary of the method: as §1

[6] = target: GalNAc(b1-3)Gal(a1-4)Gal(b1-4)GlcNAc
Summary of the method: as §1

[7] = target: GalNAc(b1-3)Gal(a1-4)Gal(b1-4)GlcNAc(b1-3)Gal(b1-4)Glc
Summary of the method: as §1

[8] = target: GalNAc(b1-3)Gal(a1-6)Gal(b1-4)Glc
Summary of the method: as §1

GalNAc(b1-3)GalNAc = target: GalNAc(b1-3)GalNAc
Summary of the method: as §1

GalNAc(b1-3)GlcNAc = target: GalNAc(b1-3)GlcNAc
Summary of the method: as §1

GalNAc(b1-4)Gal(b1-4)Glc = target: GalNAc(b1-4)Gal(b1-4)Glc
Summary of the method: as §1

GalNAc(b1-4)GlcNAc = target: GalNAc(b1-4)GlcNAc
Summary of the method: as §1

[9] = target: GalNAc(b1-4)GlcNAc(b1-2)Man
Summary of the method: as §1

[10] = target: GalNAc(b1-4)GlcNAc(b1-2)Man(a1-3)[GalNAc(b1-4)GlcNAc(b1-2)Man(a1-6)]Man(b1-4)GlcNAc(b1-4)GlcNAc
Summary of the method: as §1

[11] = target: GalNAc(b1-4)GlcNAc(b1-3)GalNAc(b1-4)GlcNAc
Summary of the method: as §1

GalNAc(b1-4)GlcNAc6S = target: GalNAc(b1-4)GlcNAc6S
Summary of the method: as §1

GalNAc(b1-6)GalNAc = target: GalNAc(b1-6)GalNAc
Summary of the method: as §1

GalNAc3S(b1-4)GlcNAc = target: GalNAc3S(b1-4)GlcNAc
Summary of the method: as §1

GalNAc3S(b1-4)GlcNAc3S = target: GalNAc3S(b1-4)GlcNAc3S
Summary of the method: as §1

B1: Aap brpt (Staphylococcus epidermidis) (protein)
chain: VDGDPITSTEEIPFDKKREFDPNLAPGTEKVVQKGEPGTKTITTPTTKNPLTGEKVGEGEPTEKITKQPVDEIVHYGGEEIKTGHKDEFDPNAPKGSQTTQPGKPGVKNPDTGEVVTPPVDDVTKYGPVDGDPITSTEEIPFDKKREFDPNLAPGTEKVVQKGEPGTKTITTPTTKNPLTGEKVGEGEPTEKITKQPVDEIVHYGGEEIKPGHKDEFDPNAPKGSQEDVPGKPGVKNPDTGEVVTPPVDDVTKYGPVDGDSITSTEEIPFDKKREFDPNLAPGTEKVVQKGEPGTKTITTPTTKNPLTGEKVGEGEPTEKITKQPVDEIVHYGGEQIPQGHKDEFDPNAPVDSKTEVPGKPGVKNPDTGEVVTPPVDDVTKYGPVDGDSITSTEEIPFDKKREFDPNLAPGTEKVVQKGEPGTKTITTPTTKNPLTGEKVGEGKSTEKVTKQPVDEIVEYGPTK
With B1 the “glycan array binding signal (z-score)” value (Gal3S(b1-4)Glc) was 0.126, the “glycan array binding signal (z-score)” value (Gal3S(b1-4)Glc6S) was 0.154 and the “glycan array binding signal (z-score)” value (Gal3S(b1-4)GlcNAc) was -0.106. The “glycan array binding signal (z-score)” value [1] was 2.61, the “glycan array binding signal (z-score)” value [2] was 1.1 and the “glycan array binding signal (z-score)” value [3] was 0.76. For the same binder, the “glycan array binding signal (z-score)” value (Gal3S4S(b1-4)GlcNAc) was -0.43, the “glycan array binding signal (z-score)” value (Gal3S6S(b1-4)GlcNAc) was 0.723 and the “glycan array binding signal (z-score)” value (Gal3S6S(b1-4)GlcNAc6S) was 1.29. The “glycan array binding signal (z-score)” value (Gal4S(b1-4)GlcNAc) was -0.773, the “glycan array binding signal (z-score)” value (Gal4S6S(b1-4)GlcNAc) was 0.138 and the “glycan array binding signal (z-score)” value (Gal6P(b1-4)GlcNAc) was -0.135. The “glycan array binding signal (z-score)” value (Gal6S(b1-3)GlcNAc) was -0.868, the “glycan array binding signal (z-score)” value (Gal6S(b1-3)GlcNAc6S) was 0.052 and the “glycan array binding signal (z-score)” value (Gal6S(b1-4)Glc) was 0.182. For the same binder, the “glycan array binding signal (z-score)” value (Gal6S(b1-4)Glc6S) was -1.5, the “glycan array binding signal (z-score)” value (Gal6S(b1-4)GlcNAc) was -0.551 and the “glycan array binding signal (z-score)” value (Gal6S(b1-4)GlcNAc6S) was 0.862. The “glycan array binding signal (z-score)” value (GalNAc(a1-3)Gal) was 0.612, the “glycan array binding signal (z-score)” value (GalNAc(a1-3)GalNAc) was 1.13 and the “glycan array binding signal (z-score)” value [4] was 0.712. For the same binder, the “glycan array binding signal (z-score)” value [5] was 0.106, the “glycan array binding signal (z-score)” value (GalNAc(b1-3)Gal) was 0.326 and the “glycan array binding signal (z-score)” value [6] was 1.25. The “glycan array binding signal (z-score)” value [7] was 0.66, the “glycan array binding signal (z-score)” value [8] was -0.619 and the “glycan array binding signal (z-score)” value (GalNAc(b1-3)GalNAc) was 0.52. For the same binder, the “glycan array binding signal (z-score)” value (GalNAc(b1-3)GlcNAc) was 0.583, the “glycan array binding signal (z-score)” value (GalNAc(b1-4)Gal(b1-4)Glc) was 0.726 and the “glycan array binding signal (z-score)” value (GalNAc(b1-4)GlcNAc) was 1.21. The “glycan array binding signal (z-score)” value [9] was -2.06, the “glycan array binding signal (z-score)” value [10] was -0.761 and the “glycan array binding signal (z-score)” value [11] was -1.73. For the same binder, the “glycan array binding signal (z-score)” value (GalNAc(b1-4)GlcNAc6S) was 0.443, the “glycan array binding signal (z-score)” value (GalNAc(b1-6)GalNAc) was -0.433 and the “glycan array binding signal (z-score)” value (GalNAc3S(b1-4)GlcNAc) was 0.056. The “glycan array binding signal (z-score)” value (GalNAc3S(b1-4)GlcNAc3S) was -0.264.
